PMC12040169 (PLOS Biology, 2025)
This is one part of the list.

System: T1, CTL2-GFP (C. trachomatis L2/434/Bu, GFP-expressing)
T1 construct: L2/434/Bu, GFP-expressing
Set-up: species or system HeLa; Intracellular C. trachomatis growth in HeLa cells, bulk GFP fluorescence relative to DMSO
Conditions: bulk GFP, single well; 28.5 h, 10 µM; inhibitor

SMILES | % of control remaining
CCCCNC(=O)N1CCN(c2ccccc2Cl)CC1 [CBK043777] | 94.3147%
CN(C)S(=O)(=O)c1ccc(C(=O)C2=C(O)C(=O)N(CCN3CCOCC3)C2c2ccccc2)cc1 (stereo not drawn) [CBK264540] | 89.9804%
CCCCc1nnc(CC(C)C)o1 [CBK008679] | 107.068%
COc1ccc(C(=O)Nc2cc(C)c3c(=O)oc4ccccc4c3n2)cc1OC [CBK287442] | 147.576%
Cc1ccccc1OCC(O)CN1CCN(CCN2C(=O)c3cccc4cccc(c34)C2=O)CC1 (stereo not drawn) [CBK278321C] | 172.333%
CSCCN(CC(=O)O)Cc1ccccc1 [CBK005712] | 128.959%
Cc1ccc(CC2CCCN(C(=O)NCc3cnn(C)c3)C2)cc1 (stereo not drawn) [CBK303990] | 109.577%
COc1cc(C(=O)N2CCC(n3c(=O)[nH]c4c(C)cccc43)CC2)ccc1C [CBK155372] | 98.0222%
CCN(CC)CCN(C(=O)c1cnn(C)c1C)C1CCS(=O)(=O)C1 (stereo not drawn) [CBK305321] | 120.442%
COc1ccc(N2CCN(CC(O)COc3ccc4c(C)cc(=O)oc4c3)CC2)cc1 (stereo not drawn) [CBK269847] | 171.869%
C(=C\c1cccc(N2CCN(CCN3CCCC3)CC2)n1)/c1ccccc1 [CBK036853] | 196.634%
COc1ccc(-c2nc(NC(=O)C3CC(=O)N(C)C3c3cccnc3)cnc2-c2cccc(C)c2)cc1 (stereo not drawn) [CBK036692] | 163.12%
CC1CC(C(F)F)n2nc(C(=O)O)nc2N1 (stereo not drawn) [CBK267636] | 155.884%
CCN(CC)CCN1CCN(c2cncc(-c3cccc(/C=C/C(=O)O)c3)n2)CC1 [CBK066097] | 151.727%
COc1ccc(C2(C(=O)NCc3c(F)cccc3F)CC2)cc1 [CBK149826] | 67.3698%
O=[N+]([O-])c1ccccc1S(=O)(=O)NCc1ccccn1 [CBK261751] | 111.967%
CC(C)(c1ccccc1)c1ccc(OCC(=O)Nc2cccc(C(=O)O)c2)cc1 [CBK266014] | 95.3725%
COCCC(=O)NCC1Cc2cc(F)cc(-c3ccc(C(C)=O)s3)c2O1 (stereo not drawn) [CBK306742] | 121.16%
COc1ccccc1CNC(=O)c1cccc(C)c1[N+](=O)[O-] [CBK265703] | 54.3347%
COc1cc2c(cc1OC)C(C(=O)O)CC(=O)N2 (stereo not drawn) [CBK218955] | 114.902%
CS(=O)(=O)N(CCc1ccccc1)CC(=O)O [CBK281244] | 130.872%
c1ccc(C[n+]2cn3cc(-c4ccccc4)nc3[n-]2)cc1 [CBK261654] | 100%
COc1ccc(CN[C@@H]2CCC[C@H]2Cc2cc(C)no2)cc1 [CBK285401] | 117.095%
CC1CCCN(C(=O)c2ccc(-n3ccnc3)c(-n3cccc3)c2)C1 (stereo not drawn) [CBK285370] | 109.304%
Cc1cc(C[C@@H]2COC[C@H]2NCc2ccc(Cl)cc2)on1 [CBK285402] | 125.26%
Cn1c(=O)c2[nH]c(CN3CCN(Cc4ccccc4)CC3)nc2n(C)c1=O [CBK269519] | 137.539%

SMILES | % of control remaining
CN(C)c1nc(Cl)nc(N(C)C#N)n1 [CBK025922] | 119.405%
CC(Nc1cc(N2CCN(CCO)CC2)ccc1[N+](=O)[O-])c1ccc(Br)cc1 (stereo not drawn) [CBK041273] | 49.0637%
COc1cc([N+](=O)[O-])ccc1NC(=S)NCc1ccc(S(N)(=O)=O)cc1 [CBK267067] | 170.141%
Cc1cc(C(=O)N(Cc2ccccc2)c2ccccc2)no1 [CBK268131] | 90.8261%
Cc1ccccc1-c1noc(C(C)NC(=O)C2(Cn3ccnc3)CC2)n1 (stereo not drawn) [CBK306684] | 143.637%
CC(C)(C)c1cc(C(=O)NCc2ccccn2)n(Cc2ccc(Cl)cc2Cl)n1 [CBK107288] | 113.482%
Cc1cc(Cc2cnc(NC(=O)c3ccncc3)s2)ccc1Br [CBK298304] | 101.732%
CCN1CCN(S(=O)(=O)c2ccc(Br)cc2)CC1 [CBK100197] | 100%
COc1ccc(-c2nnc(SCC(=O)O)n2C)cc1 [CBK287232] | 146.612%
O=C(O)CCCC(=O)Nc1cc(C(=O)O)ccc1Cl [CBK267907] | 90.5035%
Cc1cc(C)c(COc2nccnc2OC2CCN(CCCC#N)CC2)c(C)c1 [CBK161575] | 103.247%
Cc1cc2c(cc1NC(=O)[C@@H]1C[C@@H]3C=C[C@H]1C3)n(C)c(=O)n2C [CBK281689] | 102.488%
CS(=O)(=O)N1C2CCC(C2)[C@H]1COc1ccc(F)cc1 (stereo partly drawn) [CBK285279] | 146.291%
O=C(NCc1ccc2c(c1)OCO2)c1ccccc1CCc1ccccc1 [CBK268591] | 79.4802%
Cc1nnc(-c2cc(CC(C)C)n(-c3cccc(C(=O)N4CC=CCC4)c3)n2)o1 [CBK114630] | 101.881%
COc1ccccc1-c1nnc(NC(=O)COc2ccccc2)o1 [CBK287590] | 137.693%
CC1CN(c2nccn(CCOc3ccc(Br)cc3)c2=O)CCN1 (stereo not drawn) [CBK028596T] | 143.581%
CCC(CN(C(=O)C(N)CCCCN)c1ccc2c(c1)OCO2)c1ccccc1 (stereo not drawn) [CBK001083T] | 110.4%
O=C(COc1ccc(I)cc1)N/N=C/c1cccc([N+](=O)[O-])c1 [CBK262211] | 100%
O=c1nc(-c2ccccc2Cl)oc2ccccc12 [CBK152263] | 163.584%
Cc1nn(C)c2nc(NCc3ccc(C(=O)N4CCCC4)cc3)sc12 [CBK307190] | 100.966%
Cc1ccc(NC(=O)CN2C(=O)c3ccccc3C2=O)c(C(=O)O)c1 [CBK262837] | 128.392%
N#CCCN(Cc1ccco1)C(=O)c1ccc(NC2CC2)nc1 [CBK304922] | 81.8351%
N#C/C(=C\c1ccc(C(=O)O)cc1)C(=O)NCC1CCCO1 (stereo not drawn) [CBK263228] | 113.253%
O=C(O)CN1C(=O)C2CCC(c3ccccc3)CC2C1=O (stereo not drawn) [CBK286952] | 115.603%
c1ccc(COc2cccc(CNCCN3CCOCC3)c2)cc1 [CBK278226C] | 120.095%

SMILES | % of control remaining
CCOC(=O)Cc1csc(NC(=O)CSc2nc3cc4c(cc3cc2C)OCO4)n1 [CBK109112] | 99.9594%
Cc1oc2c(CN(C)C)c(O)ccc2c(=O)c1-c1cnn(-c2ccccc2)c1 [CBK264496] | 100%
O=C(NC(c1ccccc1)c1cccnc1)C1CCN(C(=O)CN2C(=O)c3ccccc3C2=O)CC1 (stereo not drawn) [CBK060515] | 89.0269%
Cc1cc(C)cc(Nc2c([N+](=O)[O-])nn(-c3cccc(Cl)c3)[n+]2[O-])c1 [CBK268254] | 75.1129%
Cc1nnsc1[S+]([O-])c1ccc(Br)cc1 (stereo not drawn) [CBK012927] | 114.749%
CN(C)C(=O)c1nccnc1-c1ccc(COc2ccc3c(c2)OCO3)cc1 [CBK050829] | 109.577%
Cc1cc(OCc2nc(-c3ccc(NC(=O)c4ccc5c(c4)OCO5)cc3)no2)ccc1Cl [CBK266673] | 103.772%
Cc1nc(-c2nnc3ccc(Cl)nn23)c(Br)[nH]1 [CBK028706B] | 159.092%
CCN(CC)C(=O)C1CCCN(C(=O)NCCc2c[nH]c3ccccc23)C1 (stereo not drawn) [CBK156140] | 111.753%
COc1ccc(C2=NN(c3ccc([N+](=O)[O-])cc3)C(=O)/C2=C/NCc2ccc3c(c2)OCO3)cc1 [CBK264598] | 100%
CC(=O)c1ccc(NC(=O)NNS(=O)(=O)c2ccc(F)cc2)cc1 [CBK266944] | 125.842%
CN1CCC(CNC(=O)Cn2ccc3ccc(F)cc32)(N(C)C)CC1 [CBK282569] | 109.286%
CC(C)(CN)CN(Cc1cccc(Cl)c1)C(=O)Nc1ccc2c(c1)OCO2 [CBK002482C] | 119.688%
CCC(=O)Nc1nc2ccccc2n1CCN1CCOCC1 [CBK261477] | 122.409%
COc1ccc(CCN2CCC(CNC(=O)NCc3ccccc3)CC2)cc1OC [CBK051511T] | 132.973%
Cc1cc(C)n(CC(=O)N2CCNCC2c2cccc(Cl)c2)n1 (stereo not drawn) [CBK304116] | 120.132%
CCC(=O)NC(Nc1cc(Cl)ccc1OC)(C(F)(F)F)C(F)(F)F [CBK261342] | 109.268%
Cn1cc(-c2ccc(OCC3CCN(C(=O)OC(C)(C)C)CC3)cn2)cn1 [CBK173498] | 172.504%
CC(C)Nc1cccnc1N1CCN(C(=O)c2ccncc2)CC1 [CBK016714] | 139.622%
COc1ccc(CNc2cc(/C=C/c3ccccc3)nc3ccnn23)cc1 [CBK037075] | 127.372%
CC(=O)NCCn1cc2c(n1)[C@H]1CN(C(=O)C(C)C)C[C@H]1CC2 [CBK284571] | 136.56%
Cc1ccc2cc(CN3CCCC(N)CC3)c(N3CCOCC3)nc2c1 (stereo not drawn) [CBK307693] | 165.025%
CCOc1cc(/C=C2\SC(=N)NC2=O)ccc1OS(=O)(=O)c1ccc(NC(C)=O)cc1 [CBK265243] | 118.672%
O=c1/c(=C/c2ccc(N3CCOCC3)cc2)sc2nc3cc(Br)cnc3n12 [CBK262574] | 112.037%
CC(C)(C)C(=O)N1CCC(n2nc(C3CC3)ccc2=O)CC1 [CBK284242] | 131.997%
N#Cc1ccc(NCC(=O)Nc2ccn(Cc3ccncc3)n2)cc1 [CBK306241] | 213.647%

Part of the list above, set out differently:

| SMILES | % of control remaining |
| --- | --- |
| Cc1oc2c(CN(C)C)c(O)ccc2c(=O)c1-c1cnn(-c2ccccc2)c1 [CBK264496] | 100% |
| O=C(NC(c1ccccc1)c1cccnc1)C1CCN(C(=O)CN2C(=O)c3ccccc3C2=O)CC1 (stereo not drawn) [CBK060515] | 89.0269% |
| Cc1cc(C)cc(Nc2c([N+](=O)[O-])nn(-c3cccc(Cl)c3)[n+]2[O-])c1 [CBK268254] | 75.1129% |

2 successive entries already listed:
SMILES | % of control remaining
Cc1ccc2cc(CN3CCCC(N)CC3)c(N3CCOCC3)nc2c1 (stereo not drawn) [CBK307693] | 165.025%
CCOc1cc(/C=C2\SC(=N)NC2=O)ccc1OS(=O)(=O)c1ccc(NC(C)=O)cc1 [CBK265243] | 118.672%
